In publication PMC10700596 (Nature Communications, 2023):
Results are given in words; binding and its absence hold for the method and conditions named. In cells and extracts the contact can be indirect. Some results given as binding are weak or reduced against the parent protein; the word gives no strength.

Amino acid sequences for entries named in this document (tags omitted).
UniProt P35408: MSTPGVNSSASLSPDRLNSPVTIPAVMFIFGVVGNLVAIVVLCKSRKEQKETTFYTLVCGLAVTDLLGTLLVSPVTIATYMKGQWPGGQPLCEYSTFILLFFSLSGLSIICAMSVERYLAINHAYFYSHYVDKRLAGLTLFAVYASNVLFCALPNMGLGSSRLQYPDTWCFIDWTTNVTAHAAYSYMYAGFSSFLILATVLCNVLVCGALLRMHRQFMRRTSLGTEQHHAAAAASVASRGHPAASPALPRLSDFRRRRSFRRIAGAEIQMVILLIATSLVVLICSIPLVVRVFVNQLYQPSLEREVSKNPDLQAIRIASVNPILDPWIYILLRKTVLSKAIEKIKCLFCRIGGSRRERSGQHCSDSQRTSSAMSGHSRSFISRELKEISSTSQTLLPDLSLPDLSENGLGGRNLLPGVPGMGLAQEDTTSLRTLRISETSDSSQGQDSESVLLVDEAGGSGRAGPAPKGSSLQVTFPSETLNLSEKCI
UniProt P32121: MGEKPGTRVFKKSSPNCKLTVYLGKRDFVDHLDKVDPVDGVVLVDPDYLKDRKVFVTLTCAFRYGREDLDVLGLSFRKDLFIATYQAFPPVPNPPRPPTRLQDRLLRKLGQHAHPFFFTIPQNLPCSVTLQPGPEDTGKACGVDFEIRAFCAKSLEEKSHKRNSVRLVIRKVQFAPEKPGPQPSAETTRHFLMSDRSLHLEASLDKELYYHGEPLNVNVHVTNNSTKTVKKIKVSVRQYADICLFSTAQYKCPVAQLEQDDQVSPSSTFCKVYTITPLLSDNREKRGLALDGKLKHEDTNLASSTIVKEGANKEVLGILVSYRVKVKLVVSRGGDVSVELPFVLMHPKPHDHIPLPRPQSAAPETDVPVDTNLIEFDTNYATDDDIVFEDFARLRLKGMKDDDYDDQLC

Molecular target: wild-type EP4R attached to Renilla luciferase (UniProt P35408)
Assay: FRET or BRET; HEK cells transfected with EP4R-RLuc and mVenus-β-arrestin2 at 1:6; PGE2 at its EC80 (8 nM), 5 µM coelenterazine h, at least 25 min incubation; assay buffer 20 mM HEPES, 1x Hank's balanced salt solution, pH 7.4; emission at 485 nm and 530 nm

- binding: binds
Substance: mVenus N-terminally modified human β-arrestin2 (from UniProt P32121 1-409)
